In patent US20050003403A1 (IBC PHARMACEUTICALS, published 2005):
Results are given in words; binding and its absence hold for the method and conditions named. Some binding calls cover weakened binding; strength is not graded here.

The chains behind the UniProt entries cited, without tags or fusion partners. Residues count along the entry.
UniProt P06731, residues 35-685: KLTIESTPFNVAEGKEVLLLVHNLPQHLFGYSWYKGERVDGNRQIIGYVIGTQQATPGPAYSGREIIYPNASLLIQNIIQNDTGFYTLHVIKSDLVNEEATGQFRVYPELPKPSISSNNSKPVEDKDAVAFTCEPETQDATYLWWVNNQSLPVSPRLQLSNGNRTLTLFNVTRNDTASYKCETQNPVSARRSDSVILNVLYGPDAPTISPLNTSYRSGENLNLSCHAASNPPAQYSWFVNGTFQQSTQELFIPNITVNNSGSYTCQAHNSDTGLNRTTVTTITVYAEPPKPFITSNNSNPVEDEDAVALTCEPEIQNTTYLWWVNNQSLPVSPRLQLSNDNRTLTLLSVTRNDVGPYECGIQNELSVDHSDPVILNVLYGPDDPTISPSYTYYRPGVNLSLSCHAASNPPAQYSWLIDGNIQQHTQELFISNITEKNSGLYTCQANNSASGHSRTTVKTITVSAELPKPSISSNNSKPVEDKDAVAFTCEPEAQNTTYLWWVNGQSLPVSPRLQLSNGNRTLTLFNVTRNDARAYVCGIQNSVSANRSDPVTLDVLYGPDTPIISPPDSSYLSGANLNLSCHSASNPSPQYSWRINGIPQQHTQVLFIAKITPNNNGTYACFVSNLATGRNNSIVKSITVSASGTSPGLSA

Assays:
[1] = target: carcinoembryonic antigen (CEA) (UniProt P06731); test: competitive ELISA and BIAcore
[2] = target: carcinoembryonic antigen (CEA) (UniProt P06731); test: SE-HPLC of radioiodinated protein mixed with increasing amounts of CEA

B1: BS14HP (bispecific antibody)
chain 1: EAEAEFMEVQLVESGGDLVKPGGSLKLSCAASGFTFSIYTMSWLRQTPGKGLEWVATLSGDGDDIYYPDSVKGRFTISRDNAKNSLYLQMNSLRAEDTALYYCARVRLGDWDFDVWGQGTTVSVSSGGGGSDIQLTQSPSSLSASVGDRVTITCKASQDVGTSVAWYQQKPGKAPKLLIYWTSTRHTGVPSRFSGSGSGTDFTFTISSLQPEDIATYYCQQYSLYRSFGQGTKVEIKRLEGGGSEVQLVESGGGVVQPGRSLRLSCSASGFDFTTYWMSWVRQAPGKGLEWIGEIHPDSSTINYAPSLKDRFTISRDNAKNTLFLQMDSLRPEDTGVYFCASLYFGFPWFAYWGQGTPVTVSVDHHHHHH
chain 2: EAEAEFDIQLTQSPSSLSASVGDRVTITCKASQDVGTSVAWYQQKPGKAPKLLIYWTSTRHTGVPSRFSGSGSGTDFTFTISSLQPEDIATYYCQQYSLYRSFGQGTKVEIKRGGGQFMEVQLVESGGGVVQPGRSLRLSCSASGFDFTTYWMSWVRQAPGKGLEWIGEIHPDSSTINYAPSLKDRFTISRDNAKNTLFLQMDSLRPEDTGVYFCASLYFGFPWFAYWGQGTPVTVSGGGGSDIVMTQSPSSLAVSPGERVTLTCKSSQSLFNSRTRKNYLGWYQQKPGQSPKLLIYWASTRESGVPDRFSGSGSGTDFTLTINSLQAEDVAVYYCTQVYYLCTFGAGTKLELKRLDHHHHHH
notes: Non-covalent heterodimer with two CEA sites and one HSG site; The alpha-factor signal peptide is removed on secretion; also called bispecific trivalent heterodimer; hMN-14 x hMN-14 x 679 produced in Pichia pastoris
In the case of B1, the binding [1] is reported as “binds” and the binding [2] is reported as “binds”.
